{"source": "PubChem BioAssay AID602196 (INSERM, 2012)", "assay": "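Genes whose knock-down alters cisplatin killing of lung cancer cells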", "cell system": "human A549 lung cancer cells", "reagents": "siRNA pair against human genes", "duration": "48 h transfection before cisplatin; time from cisplatin to read-out not stated", "challenge": "cisplatin at a dose killing half of control-siRNA cells; exact dose and duration not given", "measurement": "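Cisplatin cell death as a shift from the 50% death seen with control siRNA; siRNAs toxic or growth-blocking alone scored 0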", "direction": "two-siRNA summed score (-2 to +2): higher = both siRNAs protect from cisplatin killing; -2 means both sensitise; mean protection from cisplatin (shift in death): higher = protection from cisplatin killing", "hit rule": "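Each siRNA scores 0 if harmful alone by LDH or WST-1, otherwise +1 if it reduces and -1 if it increases cisplatin killing; a gene is active when both siRNAs agree (sum +2 or -2)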", "meaning of the calls": "active = both siRNAs shift cisplatin killing the same way; inactive = no consistent shift, or siRNA harmful alone", "note": "The deposit covers about 23,000 reagents; this is a random part of them. 455 of all reagents (2%) count as active. 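Active includes both protection and sensitisation; some change values fall well beyond the stated -50 to +50 range.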 Unmarked entries are inactive. The numbers tell different reagents against one gene apart. Not all columns of the deposit are shown. Not stated in the record: the amount of reagent."}
{"gene": "SSX7", "reagent": 1, "two-siRNA summed score (-2 to +2)": 0, "mean protection from cisplatin (shift in death) (%)": 5.2}
{"gene": "OR14I1", "reagent": 1, "two-siRNA summed score (-2 to +2)": 1, "mean protection from cisplatin (shift in death) (%)": 13.1}
{"gene": "RSPO3", "reagent": 1, "two-siRNA summed score (-2 to +2)": -1, "mean protection from cisplatin (shift in death) (%)": 1.3}
{"gene": "CLIP2", "reagent": 1, "two-siRNA summed score (-2 to +2)": 0, "mean protection from cisplatin (shift in death) (%)": 5.4}
{"gene": "LOC389396", "reagent": 1, "two-siRNA summed score (-2 to +2)": 0, "mean protection from cisplatin (shift in death) (%)": 7.4}
{"gene": "SLFN5", "reagent": 1, "two-siRNA summed score (-2 to +2)": 0, "mean protection from cisplatin (shift in death) (%)": 11.5}
{"gene": "SLFN5", "reagent": 2, "two-siRNA summed score (-2 to +2)": 0, "mean protection from cisplatin (shift in death) (%)": 17}
{"gene": "GFRA3", "reagent": 1, "two-siRNA summed score (-2 to +2)": 1, "mean protection from cisplatin (shift in death) (%)": 11.1}
{"gene": "CEP57", "reagent": 1, "two-siRNA summed score (-2 to +2)": 1, "mean protection from cisplatin (shift in death) (%)": 14.5}
{"gene": "FXN", "reagent": 1, "two-siRNA summed score (-2 to +2)": 1, "mean protection from cisplatin (shift in death) (%)": 19.8}
{"gene": "USP6", "reagent": 1, "two-siRNA summed score (-2 to +2)": 0, "mean protection from cisplatin (shift in death) (%)": -2.3}
{"gene": "LOC340192", "reagent": 1, "two-siRNA summed score (-2 to +2)": 0, "mean protection from cisplatin (shift in death) (%)": 4.8}

The list goes on; the last 3 above are carried over.
{"gene": "FXN", "reagent": 1, "two-siRNA summed score (-2 to +2)": 1, "mean protection from cisplatin (shift in death) (%)": 19.8}
{"gene": "USP6", "reagent": 1, "two-siRNA summed score (-2 to +2)": 0, "mean protection from cisplatin (shift in death) (%)": -2.3}
{"gene": "LOC340192", "reagent": 1, "two-siRNA summed score (-2 to +2)": 0, "mean protection from cisplatin (shift in death) (%)": 4.8}
{"gene": "ADCY1", "reagent": 1, "two-siRNA summed score (-2 to +2)": 0, "mean protection from cisplatin (shift in death) (%)": -5.6}
{"gene": "FAM78A", "reagent": 1, "two-siRNA summed score (-2 to +2)": 1, "mean protection from cisplatin (shift in death) (%)": 15.8}
{"gene": "BTNL2", "reagent": 1, "two-siRNA summed score (-2 to +2)": "-2 (active)", "mean protection from cisplatin (shift in death) (%)": -34.5}
{"gene": "POMT1", "reagent": 1, "two-siRNA summed score (-2 to +2)": 0, "mean protection from cisplatin (shift in death) (%)": 5.5}
{"gene": "APOE", "reagent": 1, "two-siRNA summed score (-2 to +2)": 1, "mean protection from cisplatin (shift in death) (%)": 9.3}
{"gene": "COPS8-DT", "reagent": 1, "two-siRNA summed score (-2 to +2)": 0, "mean protection from cisplatin (shift in death) (%)": 8.2}
{"gene": "NME5", "reagent": 1, "two-siRNA summed score (-2 to +2)": 0, "mean protection from cisplatin (shift in death) (%)": 5.7}
{"gene": "CCT2", "reagent": 1, "two-siRNA summed score (-2 to +2)": -1, "mean protection from cisplatin (shift in death) (%)": -9.9}
{"gene": "RFX7", "reagent": 1, "two-siRNA summed score (-2 to +2)": 0, "mean protection from cisplatin (shift in death) (%)": 11.1}
